“And” between values parts separate entries of the source, which are not always exact repeats. Equal entries are not always repeated.

The text below walks through data of patent US20100258138A1, “RADIOLABELED 1-ACETATE PET IMAGING FOR RA[…] HEAD AND NECK CANCER” (priority 2006, published 2010).

This data set concerns lymph node metastases of head and neck squamous cell carcinoma. Description: ACE-PET imaging of metastases. It counts as in vivo, human. Here is the method: None of the patients suffered from diabetes. […] All patients participating in the study provided informed consent.
Six patients were studied with dedicated PET and four patients were investigated with PET/CT. A 32 minutes dynamic emission scan was performed immediately after intravenous injection of 10 MBq/kg body weight ACE. The scan time was 12×5s, 6×10s, 4×30s, 4×60s, 2×120s and 4×300s. Frame 30 (17-22 minutes after injection) generally provided the best image quality with highest tumor to background ratio and was therefore chosen for subsequent data analysis.
Isoactivity pixel value=(MPVtumor+APVbackground)×50%

As for `C[11C](=O)O` [ACE, ^11C-acetate], the “lymph node metastases detected by ACE-PET” value (21 metastatic lesions in seven patients) is 20/21. Further, the “ACE-PET Volumes (cc)” value (individual metastasis, 50% threshold isoactivity delineation) is 2.2 cc and 1.8 cc (3×) and 1.9 cc and 101.0 cc and 1.4 cc (2×) and 1.5 cc (2×) and 1.7 cc and 4.6 cc and 3.5 cc and 14.5 cc (2×) and 4.8 cc and 1.1 cc and 1.6 cc and 0.8 cc and 1.2 cc. For the same molecule, the “median volumes of lymph node metastases drawn by ACE” value (median±interquartile) was determined as 2.9±10.3 cc. In addition, the “volumes of metastases larger drawn by ACE compared to FDG” value (p=0.005) is given as 23%.
